In the experiment the target is hypoxia inducible factor-1 alpha (UniProt Q61221). Nature of the experiment: co-IP; co-immunoprecipitation of SGK1 and HIF-1α; the precipitated protein, the cells and the conditions are not told (section on HEI-OC1 cells).

Chains of the proteins cited; added tags and fusions are not shown.
UniProt Q61221: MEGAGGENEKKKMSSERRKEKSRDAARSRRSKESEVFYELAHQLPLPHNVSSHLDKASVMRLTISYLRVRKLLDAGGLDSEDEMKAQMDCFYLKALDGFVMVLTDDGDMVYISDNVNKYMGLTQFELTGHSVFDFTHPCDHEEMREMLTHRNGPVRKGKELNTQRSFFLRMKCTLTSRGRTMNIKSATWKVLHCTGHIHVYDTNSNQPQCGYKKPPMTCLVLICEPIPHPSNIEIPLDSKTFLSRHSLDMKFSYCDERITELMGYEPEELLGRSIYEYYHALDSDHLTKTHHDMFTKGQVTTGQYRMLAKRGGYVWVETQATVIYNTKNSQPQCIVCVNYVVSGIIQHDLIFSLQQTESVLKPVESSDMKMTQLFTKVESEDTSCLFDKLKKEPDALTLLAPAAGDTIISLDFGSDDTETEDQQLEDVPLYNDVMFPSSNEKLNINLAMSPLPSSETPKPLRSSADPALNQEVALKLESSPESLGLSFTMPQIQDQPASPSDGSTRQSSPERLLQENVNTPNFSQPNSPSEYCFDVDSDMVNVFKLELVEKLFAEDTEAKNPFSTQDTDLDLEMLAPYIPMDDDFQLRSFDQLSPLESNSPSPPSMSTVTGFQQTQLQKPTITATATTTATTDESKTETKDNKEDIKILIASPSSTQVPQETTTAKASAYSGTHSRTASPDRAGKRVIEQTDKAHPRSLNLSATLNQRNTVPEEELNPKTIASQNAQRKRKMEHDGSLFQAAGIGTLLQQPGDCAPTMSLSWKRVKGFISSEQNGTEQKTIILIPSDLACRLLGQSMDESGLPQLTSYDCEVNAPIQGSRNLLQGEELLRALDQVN
UniProt Q9WVC6: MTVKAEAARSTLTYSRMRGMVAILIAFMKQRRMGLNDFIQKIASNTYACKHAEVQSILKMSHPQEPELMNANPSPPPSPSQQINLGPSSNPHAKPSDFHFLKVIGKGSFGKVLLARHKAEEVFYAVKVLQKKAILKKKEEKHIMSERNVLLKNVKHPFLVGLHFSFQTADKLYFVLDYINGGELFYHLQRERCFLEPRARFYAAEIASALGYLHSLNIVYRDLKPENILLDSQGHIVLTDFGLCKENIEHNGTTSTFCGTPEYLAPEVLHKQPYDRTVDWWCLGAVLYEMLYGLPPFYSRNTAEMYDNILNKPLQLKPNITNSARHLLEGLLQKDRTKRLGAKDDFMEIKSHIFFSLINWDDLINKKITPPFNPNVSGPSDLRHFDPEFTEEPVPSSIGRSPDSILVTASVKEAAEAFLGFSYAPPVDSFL

Results are given in words; binding and its absence hold for the method and conditions named. In cells and extracts the contact can be indirect. Some binding calls cover weakened binding; strength is not graded here.

As for “serum and glucocorticoid-induced protein kinase 1 (from UniProt Q9WVC6 1-431)”, the binding entry was “binds”.

The values are drawn from PMC8637128.
